Results from article doi:10.1101/2022.01.12.476066.
Results are given in words; binding and its absence hold for the method and conditions named. Some binding calls cover weakened binding; strength is not graded here. Where a sequence is shown, tags or fusion partners need not be part of it.

Protein sequences, listed by entry. Tags and fused reporters are not part of them. Lines headed by an entry give the natural chain unless they say otherwise; changes in a name come on top. Residues count along the entry.
GST-Epac1 (recombinant full-length human Epac1 as a Glutathione S-transferase fusion) (O95398, residues 43-923): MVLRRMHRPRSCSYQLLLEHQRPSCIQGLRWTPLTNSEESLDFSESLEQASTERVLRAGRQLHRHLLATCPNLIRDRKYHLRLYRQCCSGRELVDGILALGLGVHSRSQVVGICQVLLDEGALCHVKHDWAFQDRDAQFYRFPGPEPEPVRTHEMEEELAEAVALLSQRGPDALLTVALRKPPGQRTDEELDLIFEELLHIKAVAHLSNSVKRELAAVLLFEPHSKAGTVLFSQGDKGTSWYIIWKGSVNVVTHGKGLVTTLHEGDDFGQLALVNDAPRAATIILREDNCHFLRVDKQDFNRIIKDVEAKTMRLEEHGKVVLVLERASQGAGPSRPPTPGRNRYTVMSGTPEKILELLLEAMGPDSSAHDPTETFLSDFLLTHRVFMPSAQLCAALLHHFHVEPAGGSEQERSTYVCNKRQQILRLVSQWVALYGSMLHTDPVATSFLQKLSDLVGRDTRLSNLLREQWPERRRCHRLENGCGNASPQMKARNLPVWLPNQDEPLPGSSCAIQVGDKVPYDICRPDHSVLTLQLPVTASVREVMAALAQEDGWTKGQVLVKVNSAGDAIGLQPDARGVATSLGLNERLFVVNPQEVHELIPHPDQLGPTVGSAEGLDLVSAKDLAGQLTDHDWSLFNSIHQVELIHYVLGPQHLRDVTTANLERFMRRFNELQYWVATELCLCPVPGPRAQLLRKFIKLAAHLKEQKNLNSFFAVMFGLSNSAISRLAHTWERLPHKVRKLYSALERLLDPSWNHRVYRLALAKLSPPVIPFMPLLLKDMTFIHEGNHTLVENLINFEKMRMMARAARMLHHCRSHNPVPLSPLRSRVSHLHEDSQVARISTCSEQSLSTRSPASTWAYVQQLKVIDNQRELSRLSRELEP
GST-Δ(1-148)Epac1 (O95398, residues 191-923): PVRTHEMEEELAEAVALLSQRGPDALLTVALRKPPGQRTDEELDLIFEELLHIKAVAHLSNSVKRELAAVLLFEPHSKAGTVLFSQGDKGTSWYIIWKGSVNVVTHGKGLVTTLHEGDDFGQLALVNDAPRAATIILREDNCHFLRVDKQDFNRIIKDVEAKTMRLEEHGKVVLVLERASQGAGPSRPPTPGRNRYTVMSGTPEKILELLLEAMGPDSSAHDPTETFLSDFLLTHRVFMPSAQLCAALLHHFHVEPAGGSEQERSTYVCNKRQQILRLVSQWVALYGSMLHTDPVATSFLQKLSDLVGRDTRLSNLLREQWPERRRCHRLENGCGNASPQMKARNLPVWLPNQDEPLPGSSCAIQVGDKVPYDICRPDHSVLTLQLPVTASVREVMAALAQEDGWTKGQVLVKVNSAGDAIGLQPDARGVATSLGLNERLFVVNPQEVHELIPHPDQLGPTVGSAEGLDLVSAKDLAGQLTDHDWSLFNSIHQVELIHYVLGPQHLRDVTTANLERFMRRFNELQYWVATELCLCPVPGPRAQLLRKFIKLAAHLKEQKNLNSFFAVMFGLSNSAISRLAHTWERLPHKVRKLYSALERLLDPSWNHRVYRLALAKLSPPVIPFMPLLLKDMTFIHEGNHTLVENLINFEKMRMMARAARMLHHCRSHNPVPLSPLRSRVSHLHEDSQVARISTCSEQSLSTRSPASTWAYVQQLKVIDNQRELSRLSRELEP

Target: T1, His6-AOS1/UBA2 (recombinant SUMO-activating enzyme E1) (UniProt Q9UBE0)
T1 sequence 1: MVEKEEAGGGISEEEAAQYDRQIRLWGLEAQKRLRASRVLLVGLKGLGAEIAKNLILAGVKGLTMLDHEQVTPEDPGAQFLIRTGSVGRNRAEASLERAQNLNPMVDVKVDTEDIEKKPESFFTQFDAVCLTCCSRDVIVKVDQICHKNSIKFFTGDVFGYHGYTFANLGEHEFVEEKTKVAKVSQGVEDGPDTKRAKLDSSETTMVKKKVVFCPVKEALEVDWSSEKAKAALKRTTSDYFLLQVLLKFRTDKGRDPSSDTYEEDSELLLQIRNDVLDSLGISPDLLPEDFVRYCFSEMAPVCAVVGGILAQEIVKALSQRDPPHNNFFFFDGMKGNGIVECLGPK
T1 sequence 2: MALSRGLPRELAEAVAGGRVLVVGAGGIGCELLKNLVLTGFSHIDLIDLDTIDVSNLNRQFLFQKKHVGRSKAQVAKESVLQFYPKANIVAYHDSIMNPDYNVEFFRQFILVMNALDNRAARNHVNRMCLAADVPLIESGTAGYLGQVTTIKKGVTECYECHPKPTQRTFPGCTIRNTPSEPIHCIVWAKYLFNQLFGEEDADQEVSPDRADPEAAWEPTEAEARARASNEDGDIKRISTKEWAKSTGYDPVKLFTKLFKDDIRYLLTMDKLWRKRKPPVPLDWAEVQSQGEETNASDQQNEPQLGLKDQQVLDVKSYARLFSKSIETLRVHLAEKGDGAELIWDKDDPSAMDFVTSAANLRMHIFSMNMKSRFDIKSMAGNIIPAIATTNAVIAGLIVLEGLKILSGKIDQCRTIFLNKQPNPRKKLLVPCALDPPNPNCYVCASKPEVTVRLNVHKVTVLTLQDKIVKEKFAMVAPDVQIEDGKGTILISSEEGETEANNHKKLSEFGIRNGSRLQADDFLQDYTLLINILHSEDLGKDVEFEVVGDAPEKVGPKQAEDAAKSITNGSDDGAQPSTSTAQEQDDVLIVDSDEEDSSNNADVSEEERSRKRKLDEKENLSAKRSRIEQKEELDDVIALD
Experiment: pull-down

binding | Substance
binds | GST-Δ(1-148)Epac1 (from UniProt O95398-3 149-881) (domain or fragment)
binds | GST-Epac1 (recombinant full-length human Epac1 as a Glutathione S-transferase fusion) (from UniProt O95398-3 1-881)
